The list shows only some results of the screen, not a fair sample: it gathers tests that were run many times, whatever their T/C, doses with no T/C, and many T/C values between a quarter and a half above the control. Other doses and runs of a compound stand elsewhere. T/C is the treated group as % of the vehicle group. Some entries give survivors of the animals treated and no T/C: the source files T/C as zero there, which appears to mark a toxic dose or a test without result, not a measured value. Some doses without a T/C left all or most animals alive at the check, yet need not have been tolerated: survival well below the control is almost never listed, so the zero probably covers shortened survival too. Counts of survivors are from the toxicity check (mostly the fifth day) where no day follows; animals may have died later. Schedule codes are those of the source, taken here to give the interval after Q, in days (D) or hours (H), and the number of doses after X. Some doses were run more than once; the results are listed from low to high. For survival time, this PubChem deposit counts one and a half times the control or more as active, and values a quarter to a half above the control carry no call in these data; other NCI protocols may use other cut-offs. Some T/C values are followed by the survivors on the day toxicity was checked, most often the fifth; without a count, all were alive then.

We go through 37 compounds from PubChem BioAssay AID330 (DTP/NCI, 2004).

The assay deals with P388 leukemia ip, CD2F1 mice, survival T/C. The assay can be described thus: NCI In Vivo Anticancer Drug Screen. Data for tumor model P388 Leukemia (intraperitoneal) in CD2F1 (CDF1) mice. As to conditions: T/C endpoint: median survival time, higher T/C = longer survival.
Setting [1] is: dose: 12.5 mg/kg/injection, schedule: Q01DX009 (ip), vehicle: saline.
[2] abbreviates: dose: 100.0 mg/kg/injection, schedule: Q01DX009 (ip), vehicle: saline.
[3] abbreviates: dose: 200.0 mg/kg/injection, schedule: Q01DX009 (ip), vehicle: saline.
[4] abbreviates: dose: 50.0 mg/kg/injection, schedule: Q01DX009 (ip), vehicle: saline with Tween-80.
[5] abbreviates: dose: 100.0 mg/kg/injection, schedule: Q01DX009 (ip), vehicle: saline with Tween-80.
Setting [6] is: dose: 200.0 mg/kg/injection, schedule: Q01DX009 (ip), vehicle: saline with Tween-80.
Where [7] appears, read: dose: 200.0 mg/kg/injection, schedule: Q01DX005 (ip), vehicle: Klucel (hydroxypropylcellulose) (HPC).
Setting [8] is: dose: 240.0 mg/kg/injection, schedule: Q01DX005 (ip), vehicle: saline with Tween-80.
Setting [9] is: dose: 200.0 mg/kg/injection, schedule: Q01DX005 (ip), vehicle: saline.
Setting [10] is: dose: 50.0 mg/kg/injection, schedule: Q01DX005 (ip), vehicle: saline with Tween-80.
[11] abbreviates: dose: 400.0 mg/kg/injection, schedule: Q01DX009 (ip), vehicle: saline with Tween-80.
[12] abbreviates: dose: 60.0 mg/kg/injection, schedule: Q01DX005 (ip), vehicle: saline with Tween-80.
[13] abbreviates: dose: 120.0 mg/kg/injection, schedule: Q01DX005 (ip), vehicle: saline with Tween-80.
Where [14] appears, read: dose: 200.0 mg/kg/injection, schedule: Q01DX005 (ip), vehicle: saline with Tween-80.

In the case of `C[N+](C)([O-])CCCNc1c2ccccc2nc2cccc([N+](=O)[O-])c12`, the survivor count runs as follows: (dose: 6.25 mg/kg/injection, schedule: Q01DX009 (ip), vehicle: saline) 6 of 6; under setting [1], 0 of 6; (dose: 50.0 mg/kg/injection, schedule: Q01DX009 (ip), vehicle: saline) 0 of 6; under setting [2], 0 of 6; under setting [3], 0 of 6.

For `CCN(CC)CCSC(=O)C(O)(c1ccccc1)c1ccccc1`, the survivor count was 6 of 6 (dose: 10.0 mg/kg/injection, schedule: Q01DX009 (ip), vehicle: saline); 0 of 6 and 3 of 6 under setting [2]; 0 of 6 under setting [3]; 0 of 6 (dose: 400.0 mg/kg/injection, schedule: Q01DX009 (ip), vehicle: saline).

In the case of `O=C(/C=C/c1c2ccccc2cc2ccccc12)c1ccc(C(=O)/C=C/c2c3ccccc3cc3ccccc23)cc1`, the survivor count is given as 6 of 6 under setting [4], 6 of 6 under setting [5] and 6 of 6 under setting [6].

Regarding `C=NC1C=CCC=C1`, the survivor count (dose: 400.0 mg/kg/injection, schedule: Q04DX002 (ip), vehicle: saline with Tween-80) is 6 of 6.

With `CN(C)CCC(=O)/C=C\c1ccccc1`, the survivor count under setting [2] is given as 2 of 6 and the survivor count under setting [3] was 0 of 6.

In the case of `c1ccc(-c2cn3ccccc3n2)cc1`, for the setting “dose: 400.0 mg/kg/injection, schedule: Q01DX009 (ip), vehicle: Klucel (hydroxypropylcellulose) (HPC)”, the survivor count is listed as 1 of 6.

Regarding `O=C(O)C(Cc1cccc(F)c1)NC(=O)C(F)(F)F` (centres undefined), the survivor count by setting is: under setting [1], 1 of 6; (dose: 25.0 mg/kg/injection, schedule: Q01DX009 (ip), vehicle: saline) 0 of 6; under setting [4], 0 of 6; under setting [5], 0 of 6; under setting [6], 0 of 6.

Take `O=C(O)c1ccccc1C(=O)O.[Cu+2].[NH-]CCC[NH-]`: the survivor count reads like this: (dose: 25.0 mg/kg/injection, schedule: Q04DX002 (ip), vehicle: saline with Tween-80) 0 of 6; (dose: 50.0 mg/kg/injection, schedule: Q04DX002 (ip), vehicle: saline with Tween-80) 0 of 6.

In the case of `CCN=C(Nc1cccc(C2=NCCN2)c1)c1ccc(C(=NCC)Nc2cccc(C3=NCCN3)c2)cc1`, the survivor count is, setting by setting: (dose: 25.0 mg/kg/injection, schedule: Q01DX005 (ip), vehicle: Klucel (hydroxypropylcellulose) (HPC)) 0 of 6; (dose: 50.0 mg/kg/injection, schedule: Q01DX005 (ip), vehicle: Klucel (hydroxypropylcellulose) (HPC)) 0 of 6; (dose: 100.0 mg/kg/injection, schedule: Q01DX005 (ip), vehicle: Klucel (hydroxypropylcellulose) (HPC)) 0 of 6; under setting [7], 0 of 6.

Turning to `O=C1CC2CC(=O)C(S(=O)c3ccccc3)C2C1` (centres undefined), the survivor count under setting [8] is 3 of 6.

In the case of `CC(O)C1CCNCC1` (centres undefined), under setting [9], the survivor count was 2 of 6.

In the case of `CC(=O)N(C)c1ccc(N=Nc2ccc3ncccc3c2)cc1`, the survivor count under setting [10] was 5 of 5.

Turning to `CC(c1ccccc1)C(OC(=O)c1ccc([N+](=O)[O-])cc1)c1ccccc1` (centres undefined), the survivor count reads like this: under setting [5], 6 of 6; under setting [6], 6 of 6; under setting [11], 5 of 6.

For `CS/C(=C/c1ccc2ccccc2[n+]1C)N1CCN(C)CC1`, the survivor count (dose: 50.0 mg/kg/injection, schedule: Q01DX005 (ip), vehicle: saline) is 3 of 6; the survivor count (dose: 100.0 mg/kg/injection, schedule: Q01DX005 (ip), vehicle: saline) was 0 of 6; the survivor count under setting [9] is given as 0 of 6.

For the compound `ClCC1CSC2(CCCCC2)O1` (centres undefined), the T/C under setting [6] was 129 % of control. The survivor count under setting [11] is 0 of 6.

With `CC(C)(Oc1ccc(-c2cccc3ccccc23)cc1)C(=O)O`, the survivor count (dose: 50.0 mg/kg/injection, schedule: Q01DX009 (ip), vehicle: Klucel (hydroxypropylcellulose) (HPC)) is listed as 6 of 6.

Take `CN(C)c1ccc(/C=N/NC(=O)COc2ccccc2)cc1`: the survivor count runs as follows: under setting [12], 6 of 6; under setting [13], 6 of 6; under setting [8], 6 of 6.

Turning to `c1ccc(-c2nc3ccccc3n2CCc2ccncc2)nc1`, under setting [7], the survivor count is on record as 0 of 6.

As to `C(=N[C@H]1CCCC[C@H]1N=Cc1ccc[nH]1)c1ccc[nH]1`, the survivor count under setting [10] is 6 of 6 and the survivor count under setting [14] was 6 of 6.

With `COC(=O)C(N)C(C)C` (centres undefined), the survivor count under setting [9] is 5 of 5.

Regarding `C=C(C)[C@H]1CN[C@H](C(=O)O)[C@H]1CC(=O)O`, the survivor count (dose: 60.0 mg/kg/injection, schedule: Q01DX005 (ip), vehicle: saline) is 2 of 5.

Turning to `COC(=O)c1ccc(OCCC(=O)CCl)cc1`, the survivor count (dose: 200.0 mg/kg/injection, schedule: Q01DX009 (ip), vehicle: Klucel (hydroxypropylcellulose) (HPC)) is 0 of 6.

As for `Oc1ccc(/C=N/N=C/c2ccc(O)c(O)c2)cc1O`, the T/C under setting [10] is 128 % of control and the T/C under setting [14] is 128 % of control.

As to `CN1NC(c2ccccc2)=C(C#N)C(=O)CC1c1ccc(Cl)cc1` (centres undefined), the T/C is, setting by setting: (dose: 15.0 mg/kg/injection, schedule: Q01DX005 (ip), vehicle: saline with Tween-80, evaluated on day 20) 95, 112, 115 % of control; (dose: 15.0 mg/kg/injection, schedule: Q01DX005 (ip), vehicle: saline with Tween-80, evaluated on day 30) 180 % of control. Further, the survivor count is 6 of 6 (dose: 30.0 mg/kg/injection, schedule: Q01DX005 (ip), vehicle: saline with Tween-80); 0 of 6 and 1 of 6 under setting [12]; 0 of 6 under setting [13]; 0 of 6 under setting [8].

Turning to `Cc1ccc(S(=O)(=O)N(CCC(c2ccccc2)c2ccccc2)S(=O)(=O)c2ccc(C)cc2)cc1`, the survivor count runs as follows: under setting [5], 6 of 6; under setting [6], 6 of 6; under setting [11], 6 of 6.

As to `C=C(Cl)CSC(=S)N1CCOCC1`, the survivor count (dose: 400.0 mg/kg/injection, schedule: Q01DX005 (ip), vehicle: saline with Tween-80) is listed as 0 of 6.

For the compound `COc1ccccc1NC(=O)Oc1ccc(C(C)(CCC(=O)O)c2ccc(OC(=O)Nc3ccccc3OC)cc2)cc1`, the T/C under setting [14] was 127 % of control.

`C/C(=N\Nc1nc2ccccc2s1)c1ccccn1`: under setting [14], the survivor count is recorded as 3 of 6.

`Cc1ccc(CC2C=CCN2)cc1` (centres undefined): the survivor count (dose: 400.0 mg/kg/injection, schedule: Q01DX001 (ip), vehicle: distilled water + alcohol) was 2 of 6.

On to `CCOC(=O)CNc1c2ccc(Cl)cc2nc2ccc(OC)cc12`, for which, under setting [6], the survivor count is 3 of 6.

Take `N#CN`: the survivor count under setting [3] is 6 of 6.

Take `COc1ccc2c(c1)C1(C)CCN(C)CC(C1)C2O` (centres undefined): the survivor count under setting [6] was 3 of 6.

Consider `CCC1=C[C@@H]2C[C@](C(=O)OC)(c3cc4c(cc3OC)N(C)[C@H]3[C@@](O)(C(=O)OC)[C@H](OC(C)=O)[C@]5(CC)C=CCN6CC[C@]43[C@@H]65)c3[nH]c4ccccc4c3CCN(C1)[C@@H]2O`, for which the T/C is 135 % of control (dose: 5.0 mg/kg/injection, schedule: Q01DX001 (ip), vehicle: water) and 129 % of control (dose: 10.0 mg/kg/injection, schedule: Q01DX001 (ip), vehicle: water).

For the compound `CN(C)CCNc1ccc(CO)c2sc3ccccc3c(=O)c12`, the T/C under setting [14] was 138 % of control.

Consider `CCCCOC1OCN(C)CC1(C)C` (centres undefined), for which the T/C is, setting by setting: under setting [5], 134 % of control; under setting [6], 126 % of control [5 of 6 alive].

For `CCCCCCCCCCCCCCCC(=O)NC1CC(OC2CC(O)(C(C)=O)Cc3c(O)c4c(c(O)c32)C(=O)c2c(OC)cccc2C4=O)OC(C)C1O` (centres undefined), the T/C reads like this: (dose: 6.0 mg/kg/injection, schedule: Q01DX009 (ip), vehicle: other) 125 % of control; (dose: 12.0 mg/kg/injection, schedule: Q01DX009 (ip), vehicle: other) 125 % of control.

As to `CSCCC(NP(=S)(c1ccccc1)c1ccccc1)C(=O)O` (centres undefined), the survivor count (dose: 100.0 mg/kg/injection, schedule: Q01DX009 (ip), vehicle: Klucel (hydroxypropylcellulose) (HPC)) is 6 of 6.
